These are yes or no findings as the source states them, for the method shown. In cells and extracts the contact can be indirect. Some binding calls cover weakened binding; strength is not graded here.
Tests used:
[1] = biological target: T1, Sec61p (wildtype) (S. cerevisiae) (UniProt P32915); assay: co-sedimentation; microsomes solubilized in 1% Triton X-100, 500 mM potassium acetate, HEPES-KOH pH 7.5; 0-15% sucrose gradient, 200,000 g, 4°C, 16 h; 13 fractions from the top, immunoblotting for Sec61p, Sss1p, Sbh1p
T1 sequence: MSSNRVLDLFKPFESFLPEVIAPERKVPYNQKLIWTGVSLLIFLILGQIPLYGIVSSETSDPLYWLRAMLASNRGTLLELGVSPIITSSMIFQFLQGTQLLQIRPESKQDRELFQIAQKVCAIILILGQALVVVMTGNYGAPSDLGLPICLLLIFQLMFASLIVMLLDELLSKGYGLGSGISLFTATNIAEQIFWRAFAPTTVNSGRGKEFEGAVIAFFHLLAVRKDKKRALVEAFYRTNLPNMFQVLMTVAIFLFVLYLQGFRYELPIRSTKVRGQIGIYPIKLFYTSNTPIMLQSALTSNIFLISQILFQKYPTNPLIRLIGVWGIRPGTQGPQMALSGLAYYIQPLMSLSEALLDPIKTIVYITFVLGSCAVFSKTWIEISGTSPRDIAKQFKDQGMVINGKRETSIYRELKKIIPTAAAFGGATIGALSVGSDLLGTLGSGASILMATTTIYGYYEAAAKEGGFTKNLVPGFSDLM

[2] = biological target: T1, Sec61p (wildtype) (S. cerevisiae); assay: cross-linking; intact microsomes in B88, pH 7.9, treated with DSS for 20 min at 20°C, quenched with ammonium acetate; SDS-PAGE and immunoblotting with anti-Sec61p or anti-Sss1p antibodies
[3] = biological target: T2, Sec71p (S. cerevisiae (endogenous in yeast microsomes)) (UniProt P33754); assay: pull-down; microsomes solubilized in digitonin, ribosome-bound Sec61 complex removed by ultracentrifugation; heptameric Sec complex precipitated through the Sec71p glycoprotein with ConA-Sepharose (1 h, 4°C); Sec61p and Sec62p in supernatant and precipitates detected by immunoblotting
T2 sequence (chain, glycosylated (the only glycosylated Sec complex subunit)): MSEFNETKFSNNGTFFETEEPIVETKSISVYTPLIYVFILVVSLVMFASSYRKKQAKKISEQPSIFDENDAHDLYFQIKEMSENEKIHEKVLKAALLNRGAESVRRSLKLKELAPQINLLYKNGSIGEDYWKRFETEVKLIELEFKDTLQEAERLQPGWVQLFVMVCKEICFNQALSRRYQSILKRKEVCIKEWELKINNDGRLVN

[4] = biological target: T1, Sec61p (wildtype) (S. cerevisiae); assay: cross-linking; data not shown: DSS cross-linking of wildtype microsomes, immunoblotting of the crosslinked material with antibodies against Sbh1p

B1: Sss1p (natural protein, UniProt P35179 1-80, looked up)
chain: MARASEKGEEKKQSNNQVEKLVEAPVEFVREGTQFLAKCKKPDLKEYTKIVKAVGIGFIAVGIIGYAIKLIHIPIRYVIV
notes: Sss1p, small subunit of the trimeric Sec61 complex, yeast; source: endogenous, yeast microsomes
Which binding [1] does the source give for B1 here?
The binding was “binds”.

And the binding [2]?
The binding was “binds”.

B2: Sec61∆L7p (protein, UniProt P32915)
chain: MSSNRVLDLFKPFESFLPEVIAPERKVPYNQKLIWTGVSLLIFLILGQIPLYGIVSSETSDPLYWLRAMLASNRGTLLELGVSPIITSSMIFQFLQGTQLLQIRPESKQDRELFQIAQKVCAIILILGQALVVVMTGNYGAPSDLGLPICLLLIFQLMFASLIVMLLDELLSKGYGLGSGISLFTATNIAEQIFWRAFAPTTVNSGRGKEFEGAVIAFFHLLAVRKDKKRALVEAFYRTNLPNMFQVLMTVAIFLFVLYLQGFRYELPIRSTKVRGQIGIYPIKLFYTSNTPIMLQSALTSNIFRESCAVFSKTWIEISGTSPRDIAKQFKDQGMVINGKRETSIYRELKKIIPTAAAFGGATIGALSVGSDLLGTLGSGASILMATTTIYGYYEAAAKEGGFTKNLVPGFSDLM
B2 was tested. Which binding [3] did it give?
The binding was “binds”.

B3: Sec62p (protein, UniProt P21825 1-274)
chain: MSAVGPGSNAGASVNGGSATAIATLLRNHKELKQRQGLFQAKQTDFFRYKRFVRALHSEEYANKSARQPEIYPTIPSNKIEDQLKSREIFIQLIKAQMVIPVKKLHSQECKEHGLKPSKDFPHLIVSNKAQLEADEYFVWNYNPRTYMDYLIVIGVVSIILALVCYPLWPRSMRRGSYYVSLGAFGILAGFFAVAILRLILYVLSLIVYKDVGGFWIFPNLFEDCGVLESFKPLYGFGEKDTYSYKKKLKRMKKKQAKRESNKKKAINEKAEQN
Which binding [3] does the source give for B3 here?
The binding was “binds”.

B4: Sbh1p (protein, UniProt P52870 1-82)
chain: MSSPTPPGGQRTLQKRKQGSSQKVAASAPKKNTNSNNSILKIYSDEATGLRVDPLVVLFLAVGFIFSVVALHVISKVAGKLF
Which binding [1] does the source give for B4 here?
The binding was “binds”.

What about the binding [4] of the same binder?
Its binding is “binds weakly”.
